No constants are given. Whether binding was seen depends on the method and setting. Some results given as binding are weak or reduced against the parent protein; the word gives no strength.
Columns and labels:
[1] = biological target: constitutively activated SIRPα-IL7RA fusion protein; test: flow cytometry on a transduced mixture of primary CD4 and CD8 T cells; CD47-Fc staining then anti-Fc
[2] = biological target: SIRPa-EC_SIRPa-TM_IL7Ra-IC (SIRP-SIRPTM-7R); test: flow cytometry on transduced primary CD8+ T cells; CD47-hFc staining then anti-Fc
[3] = biological target: SIRPa-EC IL7Ra-TM_IL7Ra-IC (SIRP-7RTM-7R); test: as above
[4] = biological target: constitutively activated SIRPα-IL7RA fusion protein; test: as above
[5] = biological target: constitutively activated SIRPα-IL7RA fusion protein; test: flow cytometry on transduced primary T cells; CD47-Fc staining then anti-Fc

By UniProt entry, the sequences of proteins in these tests, tags left out. Residues count along the entry.
UniProt Q08722, residues 19-139: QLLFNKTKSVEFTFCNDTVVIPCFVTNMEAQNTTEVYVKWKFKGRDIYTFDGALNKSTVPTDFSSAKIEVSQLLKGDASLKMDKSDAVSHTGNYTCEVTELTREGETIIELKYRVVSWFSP

Measured: binding

recombinant human CD47-human Fc (hFc) fusion protein (from UniProt Q08722 19-139) (Fc fusion)
binds: [1] | [2] | [3] | [4] | [5]

Source: patent US20250281614A1
